{
  "source": "patent US8541033B2",
  "about": "“Production of human antibodies using NOD/SCID/γcnull mice” (Central Institute for Experimental Animals, priority 2000, dated 2013)",
  "key": {"[1]": {"tested_on": "SLB-1", "experiment": "Effect of CXCR4 antagonist on in vivo growth of SLB-1 tumor in NOG mice", "conditions": "7.5×10^7 cells inoculated, KRH-1636 0.14 mg/mouse intraperitoneally every day, 15 days", "procedure": "(§1) Using 3 samples of HTLV-1 leukemia derived cell lines [L=Leukemic cell lines: ED-40515(−), MT-1 and TL-Oml], 6 samples of HTLV-1 infected cell lines [IT=infected transformed cell lines: SLB-1, M8116, HUT-102, MT-2, MT-4 and TY9-31MT], 10^7-8 cells/0.5 mL were transplanted to NOG mice and NOD/Shi-scid mice subcutaneously at a left posterior auricle thereof, and to some of them subcutaneously at a gluteal region thereof. Then, the tumor size in the mice, tissue image, and the mice with, and those without, leukemia were chronologically compared for examination, and the relations between these and transcription factors such as NFkB or fluctuation of Tax protein were also analyzed.\n(§2) Assuming that effective tumor formation by 10^7 of ED-40515(−) in NOG mice was attributable to active neogenesis of tumoral vessels via CXCR4 of tumor cells, it has been expected that tumor formation would be inhibited as long as there was continuous administration of KRH-1636, a competitive agent of SDF-1 which was a ligand thereof in endothelial cells. However, in the case of ED-40515(−) and SLB-1 (histologically angiotropic) accompanied by bleeding, the mice formed tumors with sizes of 25×18×12 mm and 20×10×18 mm equivalent to those of non-treated group, even though KRH-1636 was intraperitoneally administered every day."}, "[2]": {"tested_on": "ED-40515(−)", "experiment": "Effect of CXCR4 antagonist on in vivo growth of ED-40515(−) tumor in NOG mice", "conditions": "7.5×10^7 cells inoculated, KRH-1636 0.14 mg/mouse intraperitoneally every day, 15 days", "procedure": "as §1, §2"}},
  "note": "For at least one compound, name, drawing or mass did not settle the structure.",
  "data": [
    {"smiles": "C[C@H](NC(=O)[C@H](CCCN=C(N)N)NC(=O)c1ccc(CNCc2ccccn2)cc1)c1cccc2ccccc12", "note": "[KRH-1636]", "values": [
      {"measurement": "Tumor size (mm)", "setting": "[1]", "value": 20, "unit": "×10×18 mm"},
      {"measurement": "Tumor size (mm)", "setting": "[2]", "value": 25, "unit": "×18×12 mm"}
    ]}
  ]
}
